# Laboratory results published in the supplement of paper PMC5662767.
# Counter-ions that a name gives are not always drawn. Some of the results follow. Part of the spread comes from offsets between plates or batches.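 Smoothened with circularly permuted GFP in its cytoplasmic tail is carried by a clonal Drosophila S2 line; fluorescence appears when Hh-driven phosphorylation opens an inhibitory loop. Per-cell signal, read by flow cytometry, was scaled to Hh-stimulated untreated cells. Hits were consistent fluorescence-shifting groups of inhibitors sharing pathway targets, not single compounds.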
# Test system: Drosophila S2 cl14 SmoIP sensor cells
# Assay: normalized SmoIP GFP fluorescence (untreated unstimulated = 0%, untreated Hh-stimulated = 100%); higher = more Smo activation sensor fluorescence
# Conditions: stimulation: Hh conditioned medium (+Hh); compound concentration: 15 uM; 24 h
row,SMILES,normalized SmoIP GFP fluorescence [%]
1,CCc1c(O)cc(O)c(C(=O)c2ccc(OCCN3CCOCC3)c(OC)c2)c1CC(=O)N(CCOC)CCOC,203
2,Cc1cc2c(F)c(Oc3ncnn4cc(OC[C@@H](C)O)c(C)c34)ccc2[nH]1 [Brivanib],136
3,CN(NC(=O)CC(=O)NN(C)C(=S)c1ccccc1)C(=S)c1ccccc1 [Elesclomol],171
4,CCN(Cc1ccncc1)C(=O)C(CO)c1ccccc1 (stereo unspecified) [tropicamide],107
5,C#CCC(Cc1cnc2nc(N)nc(N)c2n1)c1ccc(C(=O)N[C@@H](CCC(=O)O)C(=O)O)cc1 (stereo partly specified) [Pralatrexate(Folotyn)],220
6,CCOc1cc(CC(=O)N[C@@H](CC(C)C)c2ccccc2N2CCCCC2)ccc1C(=O)O [Repaglinide],170
7,N[C@H]1C[C@@H]1c1ccc(-c2cccc(O)c2)cc1,116
8,Cc1ccccc1C(C(=O)NC1CCCCC1)N(C(=O)Cn1ccnc1C)c1cccc(F)c1 (stereo unspecified),135
9,O=c1oc2cc(O)ccc2s1 [tioxolone],145
10,CCOC(=O)[C@H](CCc1ccccc1)N[C@@H](C)C(=O)N1Cc2cc(OC)c(OC)cc2C[C@H]1C(=O)O [moexipril-hydrochloride],132
11,CC(=O)O[C@]1(C(C)=O)CC[C@H]2[C@@H]3C=C(C)C4=CC(=O)CC[C@]4(C)[C@H]3CC[C@@]21C [Megestrol-Acetate],167
12,C[C@@H](c1ncncc1F)[C@](O)(Cn1cncn1)c1ccc(F)cc1F [Voriconazole],145
13,CN(C)CCCCC(=O)Nc1ccc(NC(=S)NC(=O)c2ccc(C(C)(C)C)cc2)cc1 [tenovin-6],138
14,CN1CCC(=C2c3ccccc3CCc3cccnc32)CC1 [azatadine-dimaleate],134
15,Cc1cc(F)c(Nc2ncnc3cc(OCc4ccccc4)ccc23)cc1O,112
16,N#CC[C@H](C1CCCC1)n1cc(-c2ncnc3[nH]ccc23)cn1,89
17,O=C1NC(=O)C(c2ccccc2[N+](=O)[O-])=C1Nc1ccc(O)c(Cl)c1,160
18,O=C(Nc1cccc(Cl)c1)Nc1ncc(CCNc2ncnc3ccsc23)s1,109
19,N#Cc1c(O)c2c(-c3ccc(-c4ccccc4O)cc3)csc2[nH]c1=O,162
20,C[C@H](Cn1cnc2c(N)ncnc21)OCP(=O)(O)O [Tenofovir],135
21,CCN(CC)CCOc1ccc(/C(=C(\Cl)c2ccccc2)c2ccccc2)cc1 [Clomifene-citrate-Serophene],163
22,O=C(CCCCCCNC(=O)c1cnc(N(c2ccccc2)c2ccccc2)nc1)NO [rocilinostat-acy-1215],181
23,Cc1cnc(-c2cnc(NCCNc3ccc(C#N)cn3)nc2-c2ccc(Cl)cc2Cl)[nH]1,134
24,O=C(O)CCCCC(CCSCc1ccccc1)SCc1ccccc1 (stereo unspecified),125
25,O=C(O)c1ccc(C=C2SC(=S)N(c3cccc(C(F)(F)F)c3)C2=O)cc1 [cftrinh-172],152
26,CCN1CCCC1CNC(=O)c1cc(S(=O)(=O)CC)c(N)cc1OC (stereo unspecified) [Amisulpride],139
27,COc1cc(Nc2nc3ccccc3nc2NS(=O)(=O)c2ccc(NC(=O)c3ccc(C)c(OC)c3)cc2)cc(OC)c1,130

# Same assay, conditions: stimulation: mock conditioned medium (-Hh); compound concentration: 15 uM; 24 h
row,SMILES,normalized SmoIP GFP fluorescence [%]
1,CC(=O)Oc1cc(C(F)(F)F)ccc1C(=O)O [triflusal],-1.51
2,CCN(CC)CC(=O)Nc1c(C)cccc1C [Lidocaine],-6.51
3,COc1ccc(-c2oc3c(CC=C(C)C)c(O[C@@H]4O[C@H](CO)[C@@H](O)[C@H](O)[C@H]4O)cc(O)c3c(=O)c2O[C@@H]2O[C@@H](C)[C@H](O)[C@@H](O)[C@H]2O)cc1 [Icariin],-2.82
4,CC#CCn1c(N2CCC[C@@H](N)C2)nc2c1c(=O)n(Cc1nc(C)c3ccccc3n1)c(=O)n2C [linagliptin-bi-1356],16.7
5,C#Cc1cccc(Nc2ncnc3cc4c(cc23)OCCOCCOCCO4)c1 [icotinib],5.59
6,Cc1ccc(NC(=O)c2ccc(CN3CCN(C)CC3)cc2)cc1Nc1nc(-c2cccnc2)cs1 [Masitinib-(AB1010)],64.8
7,CN1CCC[C@@H]1CCO[C@](C)(c1ccccc1)c1ccc(Cl)cc1 [Clemastine-Fumarate],65.3
8,C[C@]1(O)C[C@@H](c2nc(-c3ccc4ccc(-c5ccccc5)nc4c3)c3c(N)nccn32)C1,90.3
9,CC(=O)Nc1ccc(NC(=S)NC(=O)c2ccc(C(C)(C)C)cc2)cc1 [tenovin-1],64.1
10,CC1=C(C(=O)OC(C)C)C(c2cccc([N+](=O)[O-])c2)C(C(=O)OC2CN(C(c3ccccc3)c3ccccc3)C2)=C(N)N1 (stereo unspecified) [azelnidipine],22.5
11,CC/C(=C(\c1ccccc1)c1ccc(OCCN(C)C)cc1)c1ccccc1 [Tamoxifen-Citrate(Nolvadex)],15.1
12,N#CC1(c2ccc(NC(=O)c3cccnc3NCc3ccncc3)cc2)CCCC1 [Apatinib-YN968D1],45.5
13,CCc1c(O)cc(O)c(C(=O)c2ccc(OCCN3CCOCC3)c(OC)c2)c1CC(=O)N(CCOC)CCOC,13.8
14,Cc1cc2c(F)c(Oc3ncnn4cc(OC[C@@H](C)O)c(C)c34)ccc2[nH]1 [Brivanib],39.5
15,CN(NC(=O)CC(=O)NN(C)C(=S)c1ccccc1)C(=S)c1ccccc1 [Elesclomol],21
16,CCN(Cc1ccncc1)C(=O)C(CO)c1ccccc1 (stereo unspecified) [tropicamide],-2.48
17,C#CCC(Cc1cnc2nc(N)nc(N)c2n1)c1ccc(C(=O)N[C@@H](CCC(=O)O)C(=O)O)cc1 (stereo partly specified) [Pralatrexate(Folotyn)],21
18,CCOc1cc(CC(=O)N[C@@H](CC(C)C)c2ccccc2N2CCCCC2)ccc1C(=O)O [Repaglinide],30
19,N[C@H]1C[C@@H]1c1ccc(-c2cccc(O)c2)cc1,2.24
20,Cc1ccccc1C(C(=O)NC1CCCCC1)N(C(=O)Cn1ccnc1C)c1cccc(F)c1 (stereo unspecified),12.5

row,SMILES,normalized SmoIP GFP fluorescence [%]
1,O=c1oc2cc(O)ccc2s1 [tioxolone],-6.97
2,CCOC(=O)[C@H](CCc1ccccc1)N[C@@H](C)C(=O)N1Cc2cc(OC)c(OC)cc2C[C@H]1C(=O)O [moexipril-hydrochloride],-12.7
3,CC(=O)O[C@]1(C(C)=O)CC[C@H]2[C@@H]3C=C(C)C4=CC(=O)CC[C@]4(C)[C@H]3CC[C@@]21C [Megestrol-Acetate],48.9
4,C[C@@H](c1ncncc1F)[C@](O)(Cn1cncn1)c1ccc(F)cc1F [Voriconazole],2.97
5,CN(C)CCCCC(=O)Nc1ccc(NC(=S)NC(=O)c2ccc(C(C)(C)C)cc2)cc1 [tenovin-6],47.6
6,CN1CCC(=C2c3ccccc3CCc3cccnc32)CC1 [azatadine-dimaleate],19.2
7,Cc1cc(F)c(Nc2ncnc3cc(OCc4ccccc4)ccc23)cc1O,2.35
8,N#CC[C@H](C1CCCC1)n1cc(-c2ncnc3[nH]ccc23)cn1,22.8
9,O=C1NC(=O)C(c2ccccc2[N+](=O)[O-])=C1Nc1ccc(O)c(Cl)c1,0.605
10,O=C(Nc1cccc(Cl)c1)Nc1ncc(CCNc2ncnc3ccsc23)s1,78.8
11,N#Cc1c(O)c2c(-c3ccc(-c4ccccc4O)cc3)csc2[nH]c1=O,-8.59
12,C[C@H](Cn1cnc2c(N)ncnc21)OCP(=O)(O)O [Tenofovir],4.26
13,CCN(CC)CCOc1ccc(/C(=C(\Cl)c2ccccc2)c2ccccc2)cc1 [Clomifene-citrate-Serophene],33.7
14,O=C(CCCCCCNC(=O)c1cnc(N(c2ccccc2)c2ccccc2)nc1)NO [rocilinostat-acy-1215],67.5
15,Cc1cnc(-c2cnc(NCCNc3ccc(C#N)cn3)nc2-c2ccc(Cl)cc2Cl)[nH]1,15.7
16,O=C(O)CCCCC(CCSCc1ccccc1)SCc1ccccc1 (stereo unspecified),2.86
17,O=C(O)c1ccc(C=C2SC(=S)N(c3cccc(C(F)(F)F)c3)C2=O)cc1 [cftrinh-172],37.7
18,CCN1CCCC1CNC(=O)c1cc(S(=O)(=O)CC)c(N)cc1OC (stereo unspecified) [Amisulpride],1.35
19,COc1cc(Nc2nc3ccccc3nc2NS(=O)(=O)c2ccc(NC(=O)c3ccc(C)c(OC)c3)cc2)cc(OC)c1,29.4
